Results of single-concentration screens

Protein sequences, listed by entry. Tags and fused reporters are not part of them. Residues count along the entry.
UniProt P9WNZ1, whole entry: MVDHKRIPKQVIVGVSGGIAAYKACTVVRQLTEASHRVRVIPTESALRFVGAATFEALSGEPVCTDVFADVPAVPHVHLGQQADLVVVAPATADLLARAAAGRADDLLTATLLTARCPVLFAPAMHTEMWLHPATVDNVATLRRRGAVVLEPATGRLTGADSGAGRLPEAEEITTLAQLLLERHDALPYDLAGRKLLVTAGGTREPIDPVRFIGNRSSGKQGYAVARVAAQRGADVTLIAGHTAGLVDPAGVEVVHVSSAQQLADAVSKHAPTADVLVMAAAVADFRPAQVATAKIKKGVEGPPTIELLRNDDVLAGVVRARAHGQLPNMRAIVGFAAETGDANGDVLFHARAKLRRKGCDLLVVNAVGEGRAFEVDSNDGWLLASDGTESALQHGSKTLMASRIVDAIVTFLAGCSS
UniProt Q8IDJ8, 1-583: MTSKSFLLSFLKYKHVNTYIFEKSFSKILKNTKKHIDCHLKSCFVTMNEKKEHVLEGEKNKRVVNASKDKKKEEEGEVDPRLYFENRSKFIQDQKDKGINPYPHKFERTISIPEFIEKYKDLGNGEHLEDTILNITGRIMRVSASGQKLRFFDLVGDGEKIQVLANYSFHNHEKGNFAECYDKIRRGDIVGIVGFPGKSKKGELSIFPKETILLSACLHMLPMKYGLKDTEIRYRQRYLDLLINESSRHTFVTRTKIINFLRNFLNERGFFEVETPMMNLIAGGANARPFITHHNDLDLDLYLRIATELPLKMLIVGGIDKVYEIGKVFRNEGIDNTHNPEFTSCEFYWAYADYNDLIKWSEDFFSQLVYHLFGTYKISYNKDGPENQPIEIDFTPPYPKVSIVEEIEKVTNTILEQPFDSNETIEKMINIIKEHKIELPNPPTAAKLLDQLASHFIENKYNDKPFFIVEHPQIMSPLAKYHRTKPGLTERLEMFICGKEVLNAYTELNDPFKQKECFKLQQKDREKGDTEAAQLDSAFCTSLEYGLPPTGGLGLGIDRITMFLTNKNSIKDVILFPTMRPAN
UniProt A4I591, 1-473: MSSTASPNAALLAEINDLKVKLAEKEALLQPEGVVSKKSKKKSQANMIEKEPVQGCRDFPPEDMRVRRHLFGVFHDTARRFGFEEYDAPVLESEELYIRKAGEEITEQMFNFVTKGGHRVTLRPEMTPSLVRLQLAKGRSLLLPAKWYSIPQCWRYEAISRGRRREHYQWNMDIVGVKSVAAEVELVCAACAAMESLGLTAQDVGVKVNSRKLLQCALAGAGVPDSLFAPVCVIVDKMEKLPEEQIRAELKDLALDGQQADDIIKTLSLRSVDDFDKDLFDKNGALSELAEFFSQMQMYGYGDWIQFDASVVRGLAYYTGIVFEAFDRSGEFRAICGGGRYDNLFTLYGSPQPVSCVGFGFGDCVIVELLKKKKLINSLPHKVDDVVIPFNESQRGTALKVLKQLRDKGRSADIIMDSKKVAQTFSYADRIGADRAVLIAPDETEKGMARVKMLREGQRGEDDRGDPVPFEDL

From ChEMBL document CHEMBL3988442, “University of Dundee, Small-Polar-MMV Screening Library” (2021).

CoaBC: 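Enzyme assay of CoaBC with a phosphate dye (Biomol Green) read at 650 nm. Target: Coenzyme A biosynthesis protein CoaBC, Mycobacterium tuberculosis (UniProt P9WNZ1). Concentration: 30 µM. Direction is inferred from only a few compounds that gave an IC50; most scored high, so higher reads as stronger inhibition. Most strong results did not repeat in a second test. Size under these conditions: about 67,000 compounds, about 40 of them at 50% or above in at least one test.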
PfKRS1: 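Enzyme assay of the cytosolic lysyl-tRNA synthetase in 384-well plates, read by luminescence. Target: Lysine-tRNA ligase, Plasmodium falciparum 3D7 (UniProt Q8IDJ8). Tested at 30 µM. Higher reads as stronger inhibition, judged from the few compounds that gave an IC50. About 69,000 compounds were tested under these conditions; 0.071% (about 49) showed 50% or more at least once.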
LiHisRS: 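Enzyme assay of histidyl-tRNA synthetase; the read-out is not stated. Target: Histidine-tRNA ligase, Leishmania infantum (UniProt A4I591). Tested at 30 µM. The record gives no direction; compounds that gave an IC50 in retests scored well above the rest, so higher reads as stronger inhibition. The assay is labelled LdHisRS but filed under L. infantum. Size under these conditions: about 69,000 compounds, about 410 of them at 50% or above in at least one test.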

Each number is a percent effect as filed. How 0% and 100% were set is not recorded. Most values in the screen are low, and negative values occur. The compounds are a random part of those screened.

Compound: CC(=O)N1CCCC1c1nnn2cc(NCc3cccnc3)ccc12 (centres undefined)
CoaBC: 10.74%
PfKRS1: 3.184%
LiHisRS: 20.35%

Compound: COc1cc(CN2CC[C@@H](N3CCCCCC3)[C@H](O)C2)cc(Cl)c1OC
CoaBC: -10.68%
PfKRS1: 3.084%
LiHisRS: 17.65%

Compound: CCN1CCN(c2ccc(F)cc2C(C)NCc2ccncc2)CC1 (centres undefined)
CoaBC: -25.55%
PfKRS1: 5.769%
LiHisRS: 18.87%

Compound: CC(C)(O)CNC(=O)c1sccc1Br
PfKRS1: 6.664%
LiHisRS: 22.86%

Compound: CCn1ccnc1CN1CCCN(C(=O)c2cnn(C)c2)CC1
CoaBC: 1.79%
PfKRS1: 4.069%
LiHisRS: 11.01%

Compound: CSc1ccc(CNC(c2ccccc2F)c2nccn2C)cc1 (centres undefined)
CoaBC: 12.08%
PfKRS1: 0.9482%
LiHisRS: 14.68%

Compound: CC(C)c1nc(C2CCCN(C(=O)c3ccc4c(c3)COC4)C2)no1 (centres undefined)
CoaBC: -10.46%
PfKRS1: -0.4823%
LiHisRS: 15.38%

Compound: COc1ccc(N2CCC(N3C[C@H](NC(C)=O)[C@@H](C(C)C)C3)CC2)cc1
CoaBC: -11.29%
PfKRS1: 2.039%
LiHisRS: 10.53%

Compound: CC(C)CN(Cc1nc2c(cnn2C)c(=O)[nH]1)CC(C)C
CoaBC: 0.5263%
PfKRS1: 4.063%
LiHisRS: 15.74%

Compound: CSc1ccc(OC(C)C(=O)Nc2c(C)n[nH]c2C)cc1 (centres undefined)
CoaBC: 2.609%
PfKRS1: 1.865%
LiHisRS: 8.901%

Compound: Cc1nc(C)n(CCCn2ccnc2-c2cc3n(n2)CCCNC3)n1
CoaBC: 3.704%
PfKRS1: 7.847%
LiHisRS: 12.28%

Compound: Cc1nn2cccnc2c1C(=O)NCc1ccccc1OC1CCC1
CoaBC: -1.946%
PfKRS1: -0.1571%
LiHisRS: 8.889%

Compound: Cc1cnn(CC2CCCCN2C(=O)c2cc(C(N)=O)cs2)c1 (centres undefined)
CoaBC: 4.7%
PfKRS1: -4.573%
LiHisRS: 0%

Compound: COc1c(C2CCCN2Cc2csc(C(C)C)n2)c(C)nn1C (centres undefined)
CoaBC: -0.7229%
PfKRS1: -3.837%
LiHisRS: 2.74%

Compound: CCS(=O)(=O)NC[C@]12COC[C@H]1CN(Cc1ccccn1)C2
CoaBC: 2.538%
PfKRS1: 3.762%
LiHisRS: 26.47%

Compound: O=C(CN1C(=O)CCC1=O)N1CCOC2(CCOCC2)C1
CoaBC: -1.38%
PfKRS1: -4.559%
LiHisRS: -3.39%

Compound: O=C(NCC(CO)Cc1ccc(Cl)cc1)c1ccncc1F (centres undefined)
CoaBC: 4.602%
PfKRS1: 12.58%
LiHisRS: 23.66%

Compound: CC(C)(C)c1coc([C@@H]2COCCN2Cc2ncc[nH]2)n1
CoaBC: 12.77%
PfKRS1: 4.929%
LiHisRS: 18.92%

Compound: COCC(C)NC(=O)c1nnn(-c2ccc(F)cc2)n1 (centres undefined)
CoaBC: 13.45%
PfKRS1: -2.519%
LiHisRS: 12.82%

Compound: COc1ncccc1CNC(=O)Nc1cc(C)nn1C
CoaBC: -1.908%
PfKRS1: 3.397%
LiHisRS: 13.04%

Compound: Cn1c(=O)c2cc(C(=O)NCCOc3ccccc3)ccc2n(C)c1=O
CoaBC: -1.595%
PfKRS1: 5.686%
LiHisRS: 12.37%

Compound: COCCN1CCC2(COCc3c(C)nc(N4CCOCC4)nc32)C1 (centres undefined)
CoaBC: -0.4673%
PfKRS1: 10.04%
LiHisRS: 22.37%

Compound: CNC(=O)c1ccc(OC)c(NCc2noc(-c3cccs3)n2)c1
CoaBC: -0.978%
PfKRS1: 3.305%
LiHisRS: 8.065%

Compound: CS(=O)(=O)N1CC[C@@H](CC(=O)O)[C@@H](CC2=NCCc3cc(F)ccc32)C1
CoaBC: -9.255%
PfKRS1: 5.541%
LiHisRS: 19.44%

Compound: CCN(CC)CCn1c(NC(=O)c2scnc2C)nc2ccccc21
CoaBC: 1.912%
PfKRS1: 2.337%
LiHisRS: 17.31%

Compound: O=C(c1cnccn1)N1CCc2ncc(CN3CCOCC3)n2CC1
CoaBC: -3%
PfKRS1: 2.038%
LiHisRS: 18%

Repeated from the top, 3 entries:

Compound,CoaBC,PfKRS1,LiHisRS
CC(=O)N1CCCC1c1nnn2cc(NCc3cccnc3)ccc12 (centres undefined),10.74%,3.184%,20.35%
COc1cc(CN2CC[C@@H](N3CCCCCC3)[C@H](O)C2)cc(Cl)c1OC,-10.68%,3.084%,17.65%
CCN1CCN(c2ccc(F)cc2C(C)NCc2ccncc2)CC1 (centres undefined),-25.55%,5.769%,18.87%